Reference: patent US12215153
These are yes or no findings as the source states them, for the method shown. Some results given as binding are weak or reduced against the parent protein; the word gives no strength.

How the values were obtained:
[1] = molecular target: T1, mouse RELT protein (receptor expressed on lymphoid tissues) (mouse) (UniProt Q8BX43); assay: immunofluorescence on paraffin sections of mouse pancreas, primary antibody 10 ng/mL
T1 sequence (looked up): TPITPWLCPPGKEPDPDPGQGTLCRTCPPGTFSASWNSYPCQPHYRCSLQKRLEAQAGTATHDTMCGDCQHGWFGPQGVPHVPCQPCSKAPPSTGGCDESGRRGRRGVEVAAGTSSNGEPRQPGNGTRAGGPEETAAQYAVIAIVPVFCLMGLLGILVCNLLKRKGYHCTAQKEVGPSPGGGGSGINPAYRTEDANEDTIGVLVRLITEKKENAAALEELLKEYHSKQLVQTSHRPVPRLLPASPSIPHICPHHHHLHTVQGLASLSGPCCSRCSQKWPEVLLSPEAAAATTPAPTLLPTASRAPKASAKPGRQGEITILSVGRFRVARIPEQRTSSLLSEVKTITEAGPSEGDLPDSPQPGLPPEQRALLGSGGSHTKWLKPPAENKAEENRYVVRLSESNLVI

[2] = molecular target: T1, mouse RELT protein (receptor expressed on lymphoid tissues) (mouse); assay: western blot of mouse CD4+ cell total protein, primary antibody 0.5 ug/mL
[3] = molecular target: T2, RELT antigen polypeptide of 32 aa to 169 aa (SEQ ID NO: 1); assay: ELISA of single B cell clone culture supernatant on the antigen
T2 sequence (peptide): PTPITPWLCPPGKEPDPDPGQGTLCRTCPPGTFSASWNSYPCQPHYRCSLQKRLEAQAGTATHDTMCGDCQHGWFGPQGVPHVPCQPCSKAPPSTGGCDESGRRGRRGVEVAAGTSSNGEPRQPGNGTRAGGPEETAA

Measured: binding

B1: anti-RELT recombinant rabbit monoclonal antibody E19399-5B2 (antibody)
heavy: QSVKESGGGLFKPTDTLTLTCTVSGFSLSTYAMSWVRQTPGIGLEWIGIVNVAGDTAYASWAMSRSTITRNTNDNTVTLKMTSLTAADTATYFCTRHGENIGDMWGPGTLIAVSSVPATPPIIFPLTCPGCVLKDTSATIVAGCLVKGYLPEPVTVTWNSGTLTNGVRTFPSVRQSSGLYSLSSVVSVTSSSQPVTCNVAHPATNTKVDKTVAPSTCSKPMCPPPELPGGPSVFIFPPKPKDTLMISRTPEVTCVVVDVSQDDPEVQFTWYINNEQVRTARPPLREQQFNSTIRVVSTLPIAHQDWLRGKEFKCKVHNKALPAPIEKTISKARGQPLEPKVYTMGPPREELSSRSVSLTCMINGFYPSDISVEWEKNGKAEDNYKTTPTVLDSDGSYFLYSKLSVPTSEWQRGDVFTCSVMHEALHNHYTQKSISRSPGK
light: DPVMTQTPSSTSAAVGGTVTINCQASQSVYANNYLSWFQKKPGQPPKQLIYDASTLASGVPSRFKGSGSGTQFTLTISGVQCDDAAAYYCAGGFTGAIFPFGGGTEVVVKGDPVAPTVLIFPPAADQVATGTVTIVCVANKYFPDVTVTWEVDG
binds: all assays above
